No constants are given. Whether binding was seen depends on the method and setting. Some results given as binding are weak or reduced against the parent protein; the word gives no strength.
Legend:
Assay in all cases: fluorescence polarization
[1] = target: T1, MLXBIR3SG (ML-IAP chimera: ML-IAP framework with XIAP-BIR3 residues 336-348 in place of 160-179, and S150G)
T1 sequence: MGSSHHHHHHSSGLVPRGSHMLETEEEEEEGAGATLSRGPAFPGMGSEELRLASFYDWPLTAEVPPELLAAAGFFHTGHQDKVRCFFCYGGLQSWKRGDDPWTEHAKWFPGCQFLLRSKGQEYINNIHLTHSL

Chains of the proteins cited; added tags and fusions are not shown. Residues count along the entry.
UniProt P98170, residues 252-348: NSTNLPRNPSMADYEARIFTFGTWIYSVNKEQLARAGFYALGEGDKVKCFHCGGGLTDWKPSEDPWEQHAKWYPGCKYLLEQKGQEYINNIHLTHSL

[2] = target: T2, ML-IAP-BIR (amino acids 63-179 of accession number BIR7_HUMAN), bacterially expressed from pET15b (human) (UniProt Q96CA5)
T2 sequence (looked up): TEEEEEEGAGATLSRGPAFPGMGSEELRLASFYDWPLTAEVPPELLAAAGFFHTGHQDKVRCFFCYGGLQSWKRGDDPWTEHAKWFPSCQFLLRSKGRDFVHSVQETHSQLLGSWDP

[3] = target: T3, MLBIR-Q (C-terminally truncated version of ML-IAP-BIR with the same number of amino acids as MLXBIR3 and MLXBIR3SG) (human) (UniProt Q96CA5)
T3 sequence (looked up): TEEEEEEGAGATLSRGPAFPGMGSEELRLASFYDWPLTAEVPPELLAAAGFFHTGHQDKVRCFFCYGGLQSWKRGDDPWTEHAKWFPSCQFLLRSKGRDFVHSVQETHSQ

[4] = target: XIAP-BIR3 (third BIR of XIAP, residues 252-348) (human) (UniProt P98170)
[5] = target: MLXBIR3 (ML-IAP-BIR with amino acids 160-179 replaced by amino acids 336-348 of XIAP-BIR3) (human) (UniProt Q96CA5+P98170)

Measured: binding

AVPFAK (5-carboxyfluorescein (5-FAM) on Lys 6) [5-carboxyflourescein-conjugated AVPFAK(5-FAM)K (Hid-FAM)]
binds: all assays above

Source: patent US20060246471A1 (published 2006)
